This note sets out measurements from patent US20100160234A1.

Protein sequences, listed by entry. Tags and fused reporters are not part of them.
UniProt P06730: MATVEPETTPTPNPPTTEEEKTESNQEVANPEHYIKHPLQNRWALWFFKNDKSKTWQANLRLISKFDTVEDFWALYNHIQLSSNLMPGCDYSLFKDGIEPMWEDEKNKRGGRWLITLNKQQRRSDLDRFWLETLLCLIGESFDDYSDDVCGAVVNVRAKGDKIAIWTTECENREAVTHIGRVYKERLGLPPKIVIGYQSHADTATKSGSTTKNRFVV

No constants are given. Whether binding was seen depends on the method and setting. Some results given as binding are weak or reduced against the parent protein; the word gives no strength. Sequences can lack the tags named with a protein.

For this experiment, the target named is Human eIF4E (immobilised in ELISA wells) (human) (UniProt P06730). The experiment can be described thus: ELISA, human eIF4E coated on the plate, GST-fusion peptide detected with anti-GST HRP antibody.

On to RKKGKGKGTTVGMGKSSRRFINMYGF (peptide, not shown: a dimerising Fc or GST) [GST-fusion of VPg5 (SEQ ID NO: 18)], for which the binding result is “binds”.
